Like-named read-outs stand apart in the source and are kept apart here. Results are given in words; binding and its absence hold for the method and conditions named. Binding seen in cells or lysates may run through a third protein. Some entries that bind do so weakly or less than the wild type. For part of these data: Tags and fused reporters may be left off the sequences shown.
T1: endogenous SENP6 (mouse (endogenous in MH-S cells or peritoneal macrophages)) (UniProt Q6P7W0)
T1 sequence: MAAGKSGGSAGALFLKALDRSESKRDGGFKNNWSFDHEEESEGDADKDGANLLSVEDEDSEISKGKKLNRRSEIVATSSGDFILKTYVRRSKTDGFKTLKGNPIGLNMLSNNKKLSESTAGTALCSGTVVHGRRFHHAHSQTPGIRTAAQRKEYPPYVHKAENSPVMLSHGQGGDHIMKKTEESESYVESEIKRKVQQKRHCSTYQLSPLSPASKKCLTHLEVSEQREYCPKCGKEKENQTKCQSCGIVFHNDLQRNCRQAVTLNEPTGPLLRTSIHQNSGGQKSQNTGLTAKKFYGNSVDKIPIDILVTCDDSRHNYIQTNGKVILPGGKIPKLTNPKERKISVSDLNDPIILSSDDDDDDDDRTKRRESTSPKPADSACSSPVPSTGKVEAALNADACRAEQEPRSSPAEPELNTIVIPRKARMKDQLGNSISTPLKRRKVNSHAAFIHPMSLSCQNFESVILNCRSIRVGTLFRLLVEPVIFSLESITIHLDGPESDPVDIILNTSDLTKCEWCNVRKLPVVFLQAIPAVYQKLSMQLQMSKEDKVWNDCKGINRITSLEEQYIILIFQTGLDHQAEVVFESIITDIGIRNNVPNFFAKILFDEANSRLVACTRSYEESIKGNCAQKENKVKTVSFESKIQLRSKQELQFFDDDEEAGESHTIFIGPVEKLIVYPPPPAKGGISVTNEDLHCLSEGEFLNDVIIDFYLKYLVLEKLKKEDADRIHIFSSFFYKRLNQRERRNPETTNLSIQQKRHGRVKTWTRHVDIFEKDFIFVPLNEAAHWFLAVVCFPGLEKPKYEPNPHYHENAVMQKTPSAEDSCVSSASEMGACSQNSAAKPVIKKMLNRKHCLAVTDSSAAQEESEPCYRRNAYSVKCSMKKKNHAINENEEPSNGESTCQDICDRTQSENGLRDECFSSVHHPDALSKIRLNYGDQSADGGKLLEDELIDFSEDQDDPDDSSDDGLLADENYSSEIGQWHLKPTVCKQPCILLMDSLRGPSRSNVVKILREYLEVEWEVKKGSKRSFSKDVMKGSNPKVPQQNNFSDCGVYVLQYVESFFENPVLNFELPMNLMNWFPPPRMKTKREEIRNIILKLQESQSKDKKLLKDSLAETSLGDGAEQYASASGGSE

Chains of the proteins cited; added tags and fusions are not shown.
UniProt Q8R4B8: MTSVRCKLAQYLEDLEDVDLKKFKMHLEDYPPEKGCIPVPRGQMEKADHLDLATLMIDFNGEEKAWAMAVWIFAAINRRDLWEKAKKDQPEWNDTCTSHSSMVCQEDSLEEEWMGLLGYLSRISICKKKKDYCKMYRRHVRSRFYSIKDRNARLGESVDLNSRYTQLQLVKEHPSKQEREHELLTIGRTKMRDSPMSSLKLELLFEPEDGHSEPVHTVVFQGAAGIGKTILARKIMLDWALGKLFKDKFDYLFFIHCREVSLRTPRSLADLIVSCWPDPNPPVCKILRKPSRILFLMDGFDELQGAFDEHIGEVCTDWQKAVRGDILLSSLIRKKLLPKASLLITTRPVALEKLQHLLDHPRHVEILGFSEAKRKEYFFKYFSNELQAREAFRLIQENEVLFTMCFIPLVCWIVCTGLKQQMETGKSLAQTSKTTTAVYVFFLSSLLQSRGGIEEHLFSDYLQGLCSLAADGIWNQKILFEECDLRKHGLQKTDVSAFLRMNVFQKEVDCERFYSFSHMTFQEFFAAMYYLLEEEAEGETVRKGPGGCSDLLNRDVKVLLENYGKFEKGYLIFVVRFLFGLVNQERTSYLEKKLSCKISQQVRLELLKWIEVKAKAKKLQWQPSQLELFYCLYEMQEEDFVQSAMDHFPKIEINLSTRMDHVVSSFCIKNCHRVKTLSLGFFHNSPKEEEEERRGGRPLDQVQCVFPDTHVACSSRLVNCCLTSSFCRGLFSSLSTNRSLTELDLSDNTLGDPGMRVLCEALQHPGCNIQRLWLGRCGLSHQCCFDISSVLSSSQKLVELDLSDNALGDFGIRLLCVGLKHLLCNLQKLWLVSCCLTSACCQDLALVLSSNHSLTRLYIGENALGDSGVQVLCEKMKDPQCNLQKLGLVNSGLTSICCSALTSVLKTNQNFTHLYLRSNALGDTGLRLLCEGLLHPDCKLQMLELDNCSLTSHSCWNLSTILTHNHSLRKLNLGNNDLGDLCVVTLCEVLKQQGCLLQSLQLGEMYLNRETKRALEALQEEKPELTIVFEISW
UniProt P29466: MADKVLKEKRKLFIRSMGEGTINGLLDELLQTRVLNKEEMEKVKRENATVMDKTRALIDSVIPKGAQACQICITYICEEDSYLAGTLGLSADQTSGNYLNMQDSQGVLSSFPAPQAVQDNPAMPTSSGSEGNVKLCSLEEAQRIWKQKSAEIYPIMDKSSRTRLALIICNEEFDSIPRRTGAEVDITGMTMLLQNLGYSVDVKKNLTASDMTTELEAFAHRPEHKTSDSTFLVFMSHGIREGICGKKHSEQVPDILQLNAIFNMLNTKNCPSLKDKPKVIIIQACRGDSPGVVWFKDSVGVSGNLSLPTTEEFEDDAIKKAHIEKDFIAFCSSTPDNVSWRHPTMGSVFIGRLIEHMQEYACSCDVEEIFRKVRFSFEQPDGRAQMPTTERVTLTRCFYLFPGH
UniProt Q96P20: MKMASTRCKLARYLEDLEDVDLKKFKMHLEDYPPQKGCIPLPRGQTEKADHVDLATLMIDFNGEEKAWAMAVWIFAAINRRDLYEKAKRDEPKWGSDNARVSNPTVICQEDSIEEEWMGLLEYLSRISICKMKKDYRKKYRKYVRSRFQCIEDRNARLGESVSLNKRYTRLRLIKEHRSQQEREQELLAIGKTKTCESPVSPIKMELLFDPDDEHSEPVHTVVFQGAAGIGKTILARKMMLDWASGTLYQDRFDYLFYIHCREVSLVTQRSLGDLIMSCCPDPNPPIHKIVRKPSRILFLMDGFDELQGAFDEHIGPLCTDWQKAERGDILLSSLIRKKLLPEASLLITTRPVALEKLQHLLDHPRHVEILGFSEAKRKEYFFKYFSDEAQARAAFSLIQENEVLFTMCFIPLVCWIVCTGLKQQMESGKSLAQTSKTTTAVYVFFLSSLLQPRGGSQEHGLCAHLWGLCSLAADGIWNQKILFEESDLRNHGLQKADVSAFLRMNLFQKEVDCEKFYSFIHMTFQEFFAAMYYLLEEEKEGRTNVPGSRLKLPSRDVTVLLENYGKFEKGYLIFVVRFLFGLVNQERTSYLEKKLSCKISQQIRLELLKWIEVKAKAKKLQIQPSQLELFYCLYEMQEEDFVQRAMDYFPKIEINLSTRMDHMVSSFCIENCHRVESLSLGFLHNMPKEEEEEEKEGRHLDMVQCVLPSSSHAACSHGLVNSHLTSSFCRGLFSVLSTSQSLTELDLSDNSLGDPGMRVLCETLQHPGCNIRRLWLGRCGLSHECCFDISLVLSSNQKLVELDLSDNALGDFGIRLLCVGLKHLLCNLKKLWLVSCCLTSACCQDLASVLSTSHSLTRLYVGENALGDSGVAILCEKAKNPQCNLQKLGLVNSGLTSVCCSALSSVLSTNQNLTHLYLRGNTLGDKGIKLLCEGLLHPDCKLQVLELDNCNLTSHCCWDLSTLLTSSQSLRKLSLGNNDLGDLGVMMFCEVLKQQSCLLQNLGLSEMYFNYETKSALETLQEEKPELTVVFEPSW
UniProt Q9ULZ3: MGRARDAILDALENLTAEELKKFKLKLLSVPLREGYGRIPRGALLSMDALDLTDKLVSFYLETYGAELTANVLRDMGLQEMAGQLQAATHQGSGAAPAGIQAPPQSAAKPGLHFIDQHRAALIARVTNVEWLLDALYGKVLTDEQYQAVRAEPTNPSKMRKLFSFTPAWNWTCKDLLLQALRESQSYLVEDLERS

T2: Myc-SENP6 (human) (UniProt Q9GZR1)
T2 sequence: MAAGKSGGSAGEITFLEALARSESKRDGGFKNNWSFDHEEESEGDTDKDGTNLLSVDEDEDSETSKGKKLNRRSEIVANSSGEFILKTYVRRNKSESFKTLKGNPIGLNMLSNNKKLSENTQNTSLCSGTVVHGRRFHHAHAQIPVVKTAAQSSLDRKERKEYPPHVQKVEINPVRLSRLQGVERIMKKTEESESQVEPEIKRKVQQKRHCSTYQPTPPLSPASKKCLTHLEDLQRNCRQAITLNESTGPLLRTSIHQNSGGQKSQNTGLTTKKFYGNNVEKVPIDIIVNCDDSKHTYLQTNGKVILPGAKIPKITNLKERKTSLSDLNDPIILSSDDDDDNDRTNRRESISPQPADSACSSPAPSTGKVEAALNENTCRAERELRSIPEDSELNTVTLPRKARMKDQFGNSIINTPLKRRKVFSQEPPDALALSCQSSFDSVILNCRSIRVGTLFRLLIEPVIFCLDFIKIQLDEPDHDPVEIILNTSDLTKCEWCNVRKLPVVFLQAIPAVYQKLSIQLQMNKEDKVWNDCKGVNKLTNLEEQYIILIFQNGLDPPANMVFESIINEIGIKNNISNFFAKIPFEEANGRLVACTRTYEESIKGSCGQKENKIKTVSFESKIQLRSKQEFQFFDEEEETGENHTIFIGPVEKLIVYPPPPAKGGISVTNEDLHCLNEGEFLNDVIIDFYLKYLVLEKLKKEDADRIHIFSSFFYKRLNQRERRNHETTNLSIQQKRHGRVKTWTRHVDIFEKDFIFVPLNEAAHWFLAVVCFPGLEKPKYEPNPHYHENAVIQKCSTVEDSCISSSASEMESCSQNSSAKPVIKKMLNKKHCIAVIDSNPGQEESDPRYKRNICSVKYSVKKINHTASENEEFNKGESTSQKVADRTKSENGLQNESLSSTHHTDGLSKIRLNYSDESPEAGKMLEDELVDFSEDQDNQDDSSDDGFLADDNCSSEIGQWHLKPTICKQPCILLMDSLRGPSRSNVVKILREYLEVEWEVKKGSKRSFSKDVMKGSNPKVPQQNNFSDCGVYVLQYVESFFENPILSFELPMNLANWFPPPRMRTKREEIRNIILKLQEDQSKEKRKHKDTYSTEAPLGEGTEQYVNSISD

T3: Myc-SENP6^C1030S (human) (UniProt Q9GZR1)
T3 sequence: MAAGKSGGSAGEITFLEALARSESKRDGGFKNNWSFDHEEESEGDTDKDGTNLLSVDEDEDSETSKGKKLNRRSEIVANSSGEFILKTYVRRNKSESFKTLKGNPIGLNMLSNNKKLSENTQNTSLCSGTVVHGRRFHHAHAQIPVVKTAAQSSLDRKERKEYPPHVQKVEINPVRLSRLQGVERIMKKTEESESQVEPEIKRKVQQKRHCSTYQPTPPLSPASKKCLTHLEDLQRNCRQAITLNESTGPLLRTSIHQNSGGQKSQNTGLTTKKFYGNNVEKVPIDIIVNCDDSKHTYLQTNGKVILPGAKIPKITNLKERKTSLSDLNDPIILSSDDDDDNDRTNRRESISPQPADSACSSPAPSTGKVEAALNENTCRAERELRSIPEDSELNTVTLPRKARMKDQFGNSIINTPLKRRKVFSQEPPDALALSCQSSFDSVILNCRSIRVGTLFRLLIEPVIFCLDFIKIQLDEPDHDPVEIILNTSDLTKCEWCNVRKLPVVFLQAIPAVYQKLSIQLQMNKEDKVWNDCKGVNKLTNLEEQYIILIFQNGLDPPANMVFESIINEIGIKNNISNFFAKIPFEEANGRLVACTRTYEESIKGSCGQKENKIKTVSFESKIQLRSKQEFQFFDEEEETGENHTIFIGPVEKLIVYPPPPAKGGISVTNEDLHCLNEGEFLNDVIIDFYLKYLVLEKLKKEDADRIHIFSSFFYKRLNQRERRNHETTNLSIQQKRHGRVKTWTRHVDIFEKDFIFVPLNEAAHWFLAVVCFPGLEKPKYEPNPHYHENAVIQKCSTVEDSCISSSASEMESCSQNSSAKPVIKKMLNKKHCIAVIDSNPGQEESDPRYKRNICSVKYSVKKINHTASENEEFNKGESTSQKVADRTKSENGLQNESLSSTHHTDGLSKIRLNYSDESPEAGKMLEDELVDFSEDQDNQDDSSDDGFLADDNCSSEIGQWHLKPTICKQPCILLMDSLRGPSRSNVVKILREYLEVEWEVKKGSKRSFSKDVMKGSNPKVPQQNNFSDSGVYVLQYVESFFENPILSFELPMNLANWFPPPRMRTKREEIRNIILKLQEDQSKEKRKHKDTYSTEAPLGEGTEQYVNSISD


Experiments:
[1] = biological target: T1, endogenous SENP6 (mouse (endogenous in MH-S cells or peritoneal macrophages)); assay: co-IP; endogenous proteins in mouse macrophages stimulated with LPS alone or with LPS followed by ATP; lysis in 25 mM tris-HCl pH 7.4, 150 mM NaCl, 1 mM EDTA, 1% NP-40, 5% glycerol; protein A/G magnetic beads; immunoblot
[2] = biological target: T2, Myc-SENP6 (human); assay: co-IP; HEK293T cells co-transfected with tagged constructs; lysis in 25 mM tris-HCl pH 7.4, 150 mM NaCl, 1 mM EDTA, 1% NP-40, 5% glycerol; antibody (anti-Myc or anti-Flag) overnight at 4 °C, protein A/G magnetic beads 4 h; immunoblot; some panels with CQ (10 μM, 6 h), Myc-SENP6 overexpression or Senp6 knock-down
[3] = biological target: T3, Myc-SENP6^C1030S (human); assay: as above
[4] = biological target: T2, Myc-SENP6 (human); assay: as above; remark: listed apart in the source

binding [2] | Molecule | also measured
– | endogenous NLRP3 (from UniProt Q8R4B8 1-1033) | binding [1]: binds
no binding | Flag-caspase-1 (from UniProt P29466 1-404) (enzyme) | –
binds | Flag-NLRP3 (from UniProt Q96P20 1-1036) | binding [3]: binds
no binding | Flag-PYCARD (from UniProt Q9ULZ3 1-195) | –
– | His-MARCHF7 (enzyme, UniProt Q9H992 1-704) MESKPSRIPRRISVQPSSSLSARMMSGSRGSSLNDTYHSRDSSFRLDSEYQSTSASASASPFQSAWYSESEITQGARSRSQNQQRDHDSKRPKLSCTNCTTSAGRNVGNGLNTLSDSSWRHSQVPRSSSMVLGSFGTDLMRERRDLERRTDSSISNLMDYSHRSGDFTTSSYVQDRVPSYSQGARPKENSMSTLQLNTSSTNHQLPSEHQTILSSRDSRNSLRSNFSSRESESSRSNTQPGFSYSSSRDEAPIISNSERVVSSQRPFQESSDNEGRRTTRRLLSRIASSMSSTFFSRRSSQDSLNTRSLNSENSYVSPRILTASQSRSNVPSASEVPDNRASEASQGFRFLRRRWGLSSLSHNHSSESDSENFNQESEGRNTGPWLSSSLRNRCTPLFSRRRREGRDESSRIPTSDTSSRSHIFRRESNEVVHLEAQNDPLGAAANRPQASAASSSATTGGSTSDSAQGGRNTGISGILPGSLFRFAVPPALGSNLTDNVMITVDIIPSGWNSADGKSDKTKSAPSRDPERLQKIKESLLLEDSEEEEGDLCRICQMAAASSSNLLIEPCKCTGSLQYVHQDCMKKWLQAKINSGSSLEAVTTCELCKEKLELNLEDFDIHELHRAHANEQAEYEFISSGLYLVVLLHLCEQSFSDMMGNTNEPSTRVRFINLARTLQAHMEDLETSEDDSEEDGDHNRTFDIA | binding [4]: binds

Reference: PMC12794193
